The text below walks through data of patent publication US5068337A, “1,4-dihydropyridines and their ability to inhibit blood platelet aggregation, inhibit thromboxane synthetase and phospholipase” (John Wyeth & Brother Limited, priority 1984, dated 1991).

For the assay, the system named is thromboxane synthetase. Put plainly: inhibition of thromboxane production (TxB2 radio-immunoassay, rabbit platelet rich plasma). Conditions: Oryctolagus cuniculus, rabbit PRP, adenosine diphosphate and adrenalin, read-out: IC50 (50% inhibition of TxB2). In kind it is cell-based. How it is done: The compounds of formula I were tested for their ability to inhibit thromboxane production by the following standard test:
a) Generation of thromboxanes
Blood (approx. 75 ml) is obtained from an anaesthetised rabbit and centrifuged at 200 g for 10 minutes to obtain platelet rich plasma (PRP). An aliquot of PRP is incubated for 10 minutes at 37° C. in the presence of vehicle or drug. Platelet aggregation is induced by the addition of adenosine diphosphate and adrenalin. The tubes are incubated for 3 minutes, centrifuged at 10,000 for 3 minutes and a […] aliquot of the supernatant taken for radio-immunoassay of thromboxane B2 (TxB2).
b) Radio-immunoassay of TxB2
The total incubation volume is 150μ containing 50μl of ^3 H - TxB2 (0.005 μCi), […] of sample or authentic TxB2 ranging from 5 to 300 pg per tube as standards and 50 μl of rabbit anti-sera to TxB2 (in a concentration which will bind 50% of H-TxB2) After incubation for 1 hour at room temperature the tubes are further incubated for 16-20 hours at 4° C. 1 ml of dextran-coated charcoal is then added to the tubes which are further incubated on ice for 10 minutes. […] Measurement of the radioactivity in the supernatant quantifies the amount of [^3 H]-TxB2 bound by the antibody. The concentration of unlabelled TxB2 in the sample is then determined from a linear standard curve. […]

Bounds are passed on as bounds.

A word on the IC50: it is the concentration that inhibits the measured activity by half. As for `COC(=O)C1=C(C)NC(C)=C(C(=O)OC)C1c1ccccc1[N+](=O)[O-]` [nifedipine, reference compound], the IC50 is more than 1000 µM.
